PubChem BioAssay AID504793 | Drosophila RNAi Screening Center | 2011
In all, the deposit lists about 23,000 reagents; this is an unselected part of those that have a named target and a result. Of all reagents, 62 (0.27%) were called active. 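Calls come from follow-up tests whose scores are not deposited, so confirmed genes may have low counts here; counts are not normalised per plate.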 Raw values vary from plate to plate and are shown uncorrected. Entries without a mark were called inactive. Reagent sequences are not shown.

Purpose: 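Whole-genome screen for parts of the DNA damage checkpoint at G2/M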 (primary screen)
Cells: Drosophila S2R+ cells
Reagents: long dsRNA against Drosophila genes, about 0.25 µg dsRNA per well
Timing: 4 days of dsRNA, then 4 hours of drug before read-out
Challenge: doxorubicin 0.5 µM for 4 hours to cause double-strand breaks, in cells also given a low, harmless dose of dsRNA against nbs to sensitise the assay
Read-out: 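Per-well count of mitotic cells stained for phospho-histone H3 after doxorubicin exposure, used as mitotic index; counts are raw and not normalised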
Direction: mitotic cells: higher = more cells in mitosis, weaker G2 arrest
Rule for the call: 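Genes are called active only when high mitotic counts were reproduced with independent dsRNAs and mitosis was checked for delay without damage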
Calls: active = confirmed in follow-up tests; inactive = not confirmed

CG31926 [DRSC00295]
- mitotic cells, replicate 1: 6

CG31926 [DRSC29022]
- mitotic cells, replicate 1: 7

zen [DRSC12632]
- mitotic cells, replicate 1: 4

zen [DRSC23673]
- mitotic cells, replicate 1: 1

SoYb [DRSC02901]
- mitotic cells, replicate 1: 1

obst-E [DRSC02128]
- mitotic cells, replicate 1: 3

obst-E [DRSC25834]
- mitotic cells, replicate 1: 5

Cdk12 [DRSC11836]
- mitotic cells, replicate 1: 14

Cdk12 [DRSC23323]
- mitotic cells, replicate 1: 9

Cdk12 [DRSC29623]
- mitotic cells, replicate 1: 5

NtR [DRSC04628]
- mitotic cells, replicate 1: 9

NtR [DRSC27686]
- mitotic cells, replicate 1: 5

CG13950 [DRSC00368]
- mitotic cells, replicate 1: 2

CG13950 [DRSC27405]
- mitotic cells, replicate 1: 9

Sp7 [DRSC15461]
- mitotic cells, replicate 1: 9

mtTFB2 [DRSC15519]
- mitotic cells, replicate 1: 1

6 of these entries, reformatted:
predicted target | DRSC id | mitotic cells, replicate 1
zen | DRSC23673 | 1
SoYb | DRSC02901 | 1
obst-E | DRSC02128 | 3
obst-E | DRSC25834 | 5
Cdk12 | DRSC11836 | 14
Cdk12 | DRSC23323 | 9

Next reagents follow.
MYPT-75D [DRSC10743]
- mitotic cells, replicate 1: 3

CG11317 [DRSC14299]
- mitotic cells, replicate 1: 5

GstT4 [DRSC19757]
- mitotic cells, replicate 1: 3

PH4alphaSG1 [DRSC15080]
- mitotic cells, replicate 1: 12

CG14451 [DRSC11708]
- mitotic cells, replicate 1: 4

CG14451 [DRSC26512]
- mitotic cells, replicate 1: 8

CG5087 [DRSC10479]
- mitotic cells, replicate 1: 6

CG17570 [DRSC01770]
- mitotic cells, replicate 1: 5

CG17570 [DRSC03754]
- mitotic cells, replicate 1: 6

Npc2g [DRSC14296]
- mitotic cells, replicate 1: 9

fng [DRSC11455]
- mitotic cells, replicate 1: 2

fng [DRSC11887]
- mitotic cells, replicate 1: 7

fng [DRSC21935]
- mitotic cells, replicate 1: 7

CG14419 [DRSC17916]
- mitotic cells, replicate 1: 14

CG14419 [DRSC27046]
- mitotic cells, replicate 1: 5

CG30376 [DRSC05086]
- mitotic cells, replicate 1: 5

lost [DRSC12002]
- mitotic cells, replicate 1: 13

lost [DRSC12234]
- mitotic cells, replicate 1: 5

lost [DRSC21987]
- mitotic cells, replicate 1: 13

CG13113 [DRSC02211]
- mitotic cells, replicate 1: 8

toc [DRSC00169]
- mitotic cells, replicate 1: 9

toc [DRSC00171]
- mitotic cells, replicate 1: 7

toc [DRSC00842]
- mitotic cells, replicate 1: 8

Gr89a [DRSC15023]
- mitotic cells, replicate 1: 5

aux [DRSC12161]
- mitotic cells, replicate 1: 2

aux [DRSC28178]
- mitotic cells, replicate 1: 1

pasha [DRSC15295]
- mitotic cells, replicate 1: 7

pasha [DRSC27821]
- mitotic cells, replicate 1: 6
